Results taken from PubChem BioAssay AID485314 (National Center for Advancing Translational Sciences (NCATS), 2010).
In all, about 340,000 compounds went through this assay and about 4,500 (1.3%) were called active. The shares of active, inactive and inconclusive entries below differ from those in the screen. Calls follow the shape of the dose curve; as a rule, active = well fitted inhibition curve with a large enough effect; inconclusive = small, poorly fitted or top-dose-only effect, or another doubt; inactive = no such curve, though single readings can be large or run the other way. Where the call is inconclusive, the potency comes from a doubtful curve fit.

Each molecule was assayed against DNA polymerase beta (Homo sapiens) (UniProt P06746) (assay: qHTS Assay for Inhibitors of DNA Polymerase Beta). Conditions: Pol beta primer extension/strand displacement, fluorescence kinetic; activity change, negative = inhibition: at 114 µM (top of the series).
Method in brief: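 Preincubation: enzyme (10 nM) with compound, 15 min, RT. Reaction: substrate added to 50 nM final. Reads: 0 and 10 min. Analysis: normalized, Hill fit.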
% is scaled to controls: 0 for no effect and ±100 for the full control effect; potency is read from the fitted curve at half-maximal effect.

Row | SMILES | Potency | activity change, negative = inhibition
1 | CCc1ccc(OCC(=O)NNC(=O)c2cc3ccccc3o2)cc1 | active: 25.1 µM | –
2 | O=C1C=C(NCc2ccccc2)CCC1 | inconclusive: 50.1 µM [inhibitor, partial curve] | –
3 | CC1CN(S(=O)(=O)c2cccc(C(=O)OCc3cc(=O)oc4cc(O)ccc34)c2)CC(C)O1 (stereo not drawn) | inconclusive: 14.1 µM [inhibitor, full curve, poor fit] | –
4 | Cc1ccccc1-n1c(SC/C(O)=C(\C#N)c2nc3ccccc3[nH]2)nnc1-c1ccncc1 | inconclusive: 39.8 µM [inhibitor, partial curve, poor fit] | –
5 | Clc1ccc(-c2nnc3sc(Cc4cccs4)nn23)cc1 | inconclusive: 20 µM [inhibitor, partial curve] | –
6 | CCOC(=O)/C=C(\C)Sc1cc(O)c2ccccc2c1O | active: 35.5 µM | –
7 | O=C(Cc1ccccc1Cl)Nc1ccc(S(=O)(=O)Nc2nccs2)cc1 | – | inactive: -12%
8 | COC/C=C/C1=CC2=CC(=O)C(C)(OC(=O)c3cnc4ccccc4n3)C(=O)C2=CN1c1ccc(CO)cc1 (stereo not drawn) | active: 1.78 µM | –
9 | COC(=O)c1ccccc1NC(=O)Cn1nc(C(F)(F)F)c2c1CCC2 | inconclusive: 4.47 µM [inhibitor, single point] | –
10 | O=C1NC(c2ccc(Br)cc2)Nc2sc3c(c21)CCC3 (stereo not drawn) | inconclusive: 100 µM [inhibitor, single point] | –
11 | COc1ccccc1-c1noc(-c2ccc(NC3CCCC3)c([N+](=O)[O-])c2)n1 | inconclusive: 89.1 µM [inhibitor, single point] | –
12 | O=C(CSc1nc(C2CC2)nc2ccccc12)Nc1ccccc1 | – | inactive: 5.77%
13 | COCCNC(=S)N(CCO)Cc1cc2cc3c(cc2[nH]c1=O)OCCO3 | inconclusive: 20 µM [inhibitor, partial curve, poor fit] | –
14 | COc1ccc(/C=C2\SC(=S)NC2=O)cc1OS(=O)(=O)c1ccc(NC(C)=O)cc1 | inconclusive: 11.2 µM [inhibitor, full curve, poor fit] | –
15 | CC1=CC2=NC(=O)CC(C)(C(=O)N(CC(=O)NC3CCCC3)c3cc(C)cc(C)c3)N2C=C1 (stereo not drawn) | inconclusive: 89.1 µM [inhibitor, single point] | –
16 | COc1ccc(OC)c(CNS(=O)(=O)c2ccc(-c3coc(C)n3)cc2)c1 | – | inactive: 1.57%
17 | COc1ccc(N2CCN(C(c3ccccc3F)c3sc4nc(-c5ccco5)nn4c3O)CC2)cc1 (stereo not drawn) | – | inactive: 35.5%
18 | CCCn1c(=O)c(C(=O)NNS(=O)(=O)c2ccc(Cl)cc2)c(O)c2ccccc21 | inconclusive: 39.8 µM [inhibitor, single point] | –
19 | COc1ccc(OCC(=O)N2CCN(C(=O)Cc3ccccc3)CC2)cc1 | – | inactive: -10.8%
20 | COc1ccc(C2=NS(=O)(=O)N(C)C(C(=O)Nc3ccc(C)cc3)=C2)cc1 | inconclusive: 2.51 µM [inhibitor, partial curve, poor fit] | –
21 | CN(C)N1C(N)=C(C#N)C(c2ccc(Cl)cc2)C2=C1CCCC2=O (stereo not drawn) | inconclusive: 89.1 µM [inhibitor, single point] | –
22 | Cc1cc(C)c2c(c1)c(C)cc1nnc(SCC(=O)c3ccc(F)cc3)n12 | inconclusive: 89.1 µM [inhibitor, single point] | –
23 | Cc1cccc(NC(=O)CSc2nnc(-c3ccco3)c(-c3ccco3)n2)c1C | active: 22.4 µM | –

Nos. 4–9 of the list above:
Row | SMILES | Potency | activity change, negative = inhibition
4 | Cc1ccccc1-n1c(SC/C(O)=C(\C#N)c2nc3ccccc3[nH]2)nnc1-c1ccncc1 | inconclusive: 39.8 µM [inhibitor, partial curve, poor fit] | –
5 | Clc1ccc(-c2nnc3sc(Cc4cccs4)nn23)cc1 | inconclusive: 20 µM [inhibitor, partial curve] | –
6 | CCOC(=O)/C=C(\C)Sc1cc(O)c2ccccc2c1O | active: 35.5 µM | –
7 | O=C(Cc1ccccc1Cl)Nc1ccc(S(=O)(=O)Nc2nccs2)cc1 | – | inactive: -12%
8 | COC/C=C/C1=CC2=CC(=O)C(C)(OC(=O)c3cnc4ccccc4n3)C(=O)C2=CN1c1ccc(CO)cc1 (stereo not drawn) | active: 1.78 µM | –
9 | COC(=O)c1ccccc1NC(=O)Cn1nc(C(F)(F)F)c2c1CCC2 | inconclusive: 4.47 µM [inhibitor, single point] | –

Next part

Row | SMILES | Potency | activity change, negative = inhibition
24 | Cc1ccc(/C(N)=N/OC(=O)Cc2cccs2)cc1 | – | inactive: 9.94%
25 | COc1ccc(CCNc2nc(SCc3ccc(Cl)cc3)nc3ccccc23)cc1OC | – | inactive: 28%
26 | Cc1cccc(C(=O)Nc2ccc3nc(SCCOc4ccccc4)sc3c2)c1 | inconclusive: 89.1 µM [inhibitor, single point] | –
27 | COc1cccc(NC(=O)CSc2nnc(-c3ccco3)c(-c3ccco3)n2)c1 | inconclusive: 35.5 µM [inhibitor, full curve, poor fit] | –
28 | CC1(C)CC(=O)C(C(C2=C(O)CC(C)(C)CC2=O)c2cccnc2)C(=O)C1 (stereo not drawn) | inconclusive: 12.6 µM [inhibitor, partial curve] | –
29 | CC(=O)N1C(C)(C)CC(=NOS(=O)(=O)c2ccccc2)CC1(C)C | – | inactive: 21.1%
30 | O=C(O)CC(CCc1ccccc1)OC1OC(CO)C(O)C(O)C1O (stereo not drawn) | active: 0.708 µM | –
31 | Cc1cc(Cl)ccc1OCC(=O)N1CCC(c2nc3ccccc3s2)CC1 | inconclusive: 89.1 µM [inhibitor, single point] | –
32 | CC(C)CC1(C(=O)NCc2ccccn2)C=CCN1C(=O)c1ccccc1 (stereo not drawn) | inconclusive: 89.1 µM [inhibitor, single point] | –
33 | Cc1c(Cl)ccc2c1NC(=O)[C@]21N[C@@H](Cc2ccccc2)[C@H]2C(=O)N(c3ccc(F)cc3)C(=O)[C@H]21 | inconclusive: 35.5 µM [inhibitor, partial curve] | –
34 | CC(C)(C)[C@]1(O)CCN2CC3c4ccccc4CCc4cccc(c43)[C@@H]2C1 (stereo partly drawn) | inactive | –
35 | Cc1c(C(=O)O)oc2c1-c1nn(Cc3ccc(Cl)cc3)cc1CC2 | active: 25.1 µM | –
36 | Cc1ccc2cccc(NC(=O)C(C)Oc3ccc(Cl)cc3Cl)c2n1 (stereo not drawn) | inconclusive: 11.2 µM [inhibitor, partial curve, poor fit] | –
37 | CC12CCC(C(=O)N3CCCCCC3)(OC1=O)C2(C)C (stereo not drawn) | inconclusive: 89.1 µM [inhibitor, single point] | –
38 | Cc1ccc(S(=O)(=O)Nc2cc3c(cc2N2CCOCC2)n(C)c(=O)n3C)cc1 | inconclusive: 100 µM [inhibitor, single point] | –
39 | COc1cccc(NC(=O)C2CCCN(S(=O)(=O)c3cccc4cccnc34)C2)c1 (stereo not drawn) | inconclusive: 70.8 µM [inhibitor, single point] | –
40 | COc1ccc(OCC(=O)N2CCOCC2)cc1 | inconclusive: 89.1 µM [inhibitor, single point] | –
41 | N#C/C(=C(/O)COC(=O)CCc1ccc(S(=O)(=O)N2CCOCC2)cc1)c1nc2ccccc2[nH]1 | active: 35.5 µM | –
42 | CCCCCCn1c(-c2ccco2)nc2oc3cc(OC)ccc3c(=O)c2c1=O | inconclusive: 14.1 µM [inhibitor, full curve] | –
43 | Cc1ccc(NC(=O)N2CCC(CN3CCCC3)CC2)c(C)c1 | – | inactive: 34.8%
44 | CC1=[N+](C)N(c2ccccc2)C(=O)C1N=Cc1c(Cl)cccc1Cl (stereo not drawn) | – | inactive: 1.85%
45 | COC(=O)C(Cc1ccc(O)cc1)NC(=O)c1ccccc1OC (stereo not drawn) | inconclusive: 0.316 µM [inhibitor, full curve, poor fit] | –
46 | COc1ccccc1CCNC(=O)Cn1ccc2cc(S(=O)(=O)N3CCCC3)ccc21 | – | inactive: 2.77%

Row | SMILES | Potency | activity change, negative = inhibition
47 | Cc1nn(C)c(C)c1S(=O)(=O)N(CC(=O)NCCCN1CCC(C)CC1)c1ccc(C(C)C)cc1 | – | inactive: 10.5%
48 | Clc1ccc(-c2csc(N/N=C/c3cccnc3)n2)c(Cl)c1 | active: 79.4 µM | –
49 | CN(Cc1ccccc1)c1ccc(-c2nc(-c3ccncc3)no2)cc1[N+](=O)[O-] | inconclusive: 39.8 µM [inhibitor, single point] | –
50 | CCOC(=O)CC(NC(=O)CCc1c(C)nc2ncnn2c1C)c1ccc(C)cc1 (stereo not drawn) | inconclusive: 2.82 µM [inhibitor, full curve, poor fit] | –
51 | COc1ccc(C(=O)Nc2ccc3c(c2)CCCN3S(=O)(=O)c2ccc(C)cc2)c(OC)c1 | inconclusive: 89.1 µM [inhibitor, single point] | –
52 | CCc1ccc(S(=O)(=O)c2cn(C)c3cc(N4CCCC4)c(F)cc3c2=O)cc1 | inconclusive: 89.1 µM [inhibitor, single point] | –
53 | N#C/C(=C\c1cc(Cl)cc(Cl)c1O)C(=O)NC1CCCCC1 | – | inactive: 16.4%
54 | N#C/C(=N\Nc1cccc(C(F)(F)F)c1)C(=O)c1ccsc1 | – | inactive: -11.4%
55 | O=c1[nH]c(/C=C/c2ccccc2F)nc2ccccc12 | inconclusive: 100 µM [inhibitor, single point] | –
56 | CC(C)(C)c1ccc(CN2C(=O)CSC2=O)cc1 | inconclusive: 10 µM [inhibitor, partial curve] | –
57 | CCOc1ccc(N2C(=O)c3[nH]nc(-c4ccc(OC)cc4)c3C2c2cccs2)cc1 (stereo not drawn) | – | inactive: -3.55%
58 | CN(C)c1ccc(N=Nc2ccc(S(N)(=O)=O)cc2)cc1 | inconclusive: 31.6 µM [inhibitor, full curve] | –
59 | COc1ccc(/C=C2\SC(=NCc3ccccc3)NC2=O)cc1 | inconclusive: 39.8 µM [inhibitor, partial curve] | –
60 | Cc1ccc(OCC(=O)Nc2ccc3c(c2)nc(CCN2CCCCC2)n3C)cc1 | – | inconclusive: -40.8% [inhibitor]
61 | COc1ccc(NC(=O)O/N=C/c2ccc(N(C)C)cc2)cc1 | inconclusive: 22.4 µM [inhibitor, full curve] | –
62 | O=C(O[C@@H]1OC2COC(=O)c3cc(O)c(O)c(O)c3-c3c(cc(O)c(O)c3O)C(=O)O[C@@H]([C@H]1O)[C@@H]2O)c1cc(O)c(O)c(O)c1 | active: 0.158 µM | –
63 | C/C(N)=C(/C#N)C(=O)CSc1nnc(Nc2ccccc2C)s1 | inconclusive: 25.1 µM [inhibitor, full curve] | –
64 | Cc1nnc(-c2cnn(C)c2N)n1Cc1ccc(Cl)cc1 | inconclusive: 22.4 µM [inhibitor, partial curve] | –
65 | CCOCc1cc(CN2CCN(c3ccccc3OC)CC2)c(O)c2ncccc12 | – | inactive: 29.9%
66 | S=c1[nH]nc(-c2cc(-c3ccccc3)n[nH]2)n1/N=C/C(Br)=C/c1ccccc1 | active: 12.6 µM | –
67 | COc1ccccc1NC(=O)Cn1c(=O)c(CNc2ccccc2)cc2cc(OC)c(OC)cc21 | inconclusive: 0.316 µM [inhibitor, partial curve, poor fit] | –
68 | COc1ccc(C(=O)COC(=O)CN2CC(=O)Oc3ccccc32)cc1Br | inconclusive: 8.91 µM [inhibitor, full curve] | –
